The list shows a part of the results. Shown are side measurements of this screen, not its main read-out; they come without a call. Most of these compounds were active or inconclusive in the main read-out, so they are no random draw. Potencies come from curve fits of mixed quality, noted in brackets.

The experiment in a line: Cell signaling CRE-BLA (Fsk stim). The note with it: CHO CRE-bla reporter (cAMP response element driving beta-lactamase), forskolin EC10, beta-lactamase ratio; measured here: 460 nm blue channel. The text has this:
NIH Molecular Libraries Screening Centers Network [MLSCN]
NIH Chemical Genomics Center [NCGC]
Assay Provider: Marshall W. Nirenberg, U.S. National heart lung & blood institute
Memories persist for different lengths of time, from seconds or minutes to a lifetime. There are two kinds of memory: short-term memory (STM) and long-term memory (LTM). STM lasts for minutes to hours, which maybe mediated by modifications of molecules involved in synaptic functions. LTM lasts for days or longer, and may be due to the formation of new synapses or restructuring of existing synapses. LTM, but not STM, requires gene transcription and synthesis of proteins. CREB (cyclic-AMP Responsive Element Binding Protein) is one of the candidates plays an important role for enhancement of some types of LTM. CREB, a family of transcription factors, regulates the transcription of genes containing cAMP Responsive Elements (CRE). CRE is a nucleotide sequence often found in the promoter regions of genes that are binding sites for CREB.
Using a beta-lactamase reporter-gene under control of cAMP responsive element, a cell-based assay [CellSensor(TM) CRE-bla CHO developed by Invitrogen Corp.] was used to measure forskolin-induced signaling. Library compounds were measured for their ability to modulate positively or negatively the action of EC10 NKH 477, a water soluble forskolin, on reporter gene activity. Compounds were screened in a titration series in 1536-well format. Positive and negative modulators were identified based on the AC50 values derived from the screening data.
NCGC Assay Protocol Summary
2000 cells/5uL in Opti-MEM medium containing 0.5% dialyzed FBS, 0.1 mM NEAA, 1 mM sodium pyruvate and 10 mM HEPES was dispensed into 1536-well plates and cells were cultured at 37 degrees Celsius overnight. […] And then the plates were incubated at 37 degrees Celsius for 3 hours. 1 uL of CCF4-dye mixture was added to each well. After incubated at room temperature for 2 hours the plates were measured on an EnVision plate reader at Excitation 405nm, Emission1=460nm and Emission 2=530nm. The %Activity was determined from the ratio of 460nm/530nm.
Keywords: NIH Roadmap, MLSCN, MLSMR, qHTS, NCGC, CRE, beta-lactamase reporter-gene assay.
Turning to `Nc1nc(NCc2ccccc2)nc(-c2ccccc2)n1`, the AC50 (as a rule, the midpoint of the concentration-response curve, whichever way the signal moves) is 10 µM [rising, partial curve].

With `COc1ccc(-c2ccc(-c3noc(-c4ccc(OC)c(OC)c4)n3)c(OC)n2)cc1`, the AC50 is 10 µM [rising, single point]. The same measure for `Cc1cccc(Cn2cnc3c(nnn3Cc3ccccc3F)c2=O)c1`: 10 µM [rising, partial curve]; for `O=c1c(-c2ccc(F)cc2)nc2cnc(Oc3ccccc3)nc2n1Cc1cccs1`: 12.6 µM [rising, partial curve]; for `COc1ccccc1NC(=O)CS(=O)(=O)c1cccc2nsnc12`: 3.16 µM [rising, single point]. As for `COc1ccc(/C=N/n2c(SC)nnc2-c2ccccc2)cc1C`, the AC50 was 10 µM [rising, partial curve]. The same measure for `O=C(O)CSc1nnc2c3ccccc3c3ccccc3c2n1`: 1 µM [falling, partial curve]; for `CCNc1ncc2nc(-c3cc(F)cc(F)c3)c(=O)n(C[C@H]3CCCO3)c2n1`: 0.398 µM [rising, full curve].

For `CCOC(=O)N1CCN(C(=O)C2CCN(S(=O)(=O)N(CC)CC)CC2)CC1`, the AC50 was 25.1 µM [rising, single point]. For `CC1(C)Cc2cccc(OCC(=O)N3CCN(S(=O)(=O)c4ccc(F)cc4)CC3)c2O1`, the AC50 is 5.01 µM [falling, partial curve]. Consider `C/C(=N\O)C(=O)NCC1CCNCC1`, for which the AC50 is 25.1 µM [falling, partial curve, poor fit]. In the case of `CCOc1ccc(C(C)=O)cc1Cn1nc(C(=O)O)c2ccccc2c1=O` it was 7.94 µM [rising, partial curve]; in that of `Cn1c(-n2c(CCN3C(=O)c4ccccc4C3=O)nc3ccccc3c2=O)nc2ccccc21`, 1.58 µM [rising, full curve, poor fit]. For the molecule `CCn1cc(CNC(=O)c2cc(Cl)ccc2OC)c(C)n1`, the half-maximal activity concentration (AC50) was 1.58 µM [rising, partial curve].

In the case of `CCOC(=O)c1cnn(-c2ccccn2)c1N`, the concentration at half-maximal activity (AC50) is 10 µM [falling, partial curve]. For `Cc1nn(-c2ccccc2)c2sc(C(=O)O)cc12`, the AC50 is 3.98 µM [rising, full curve].

Take `O=C(CN(C1CCCCC1)S(=O)(=O)c1ccc(F)cc1)NC1CC1`: the AC50 was 0.00316 µM [falling, full curve, poor fit]. Regarding `Cc1cccc(N2CCN(C(=O)c3ccc(NC(=O)C4CCCO4)cc3)CC2C)c1` (configuration not stated), the AC50 is 0.251 µM [falling, partial curve, poor fit].

As to `CCOC(=O)c1ccc(N2C(=O)c3n[nH]c(C)c3C2c2ccc(OC)cc2OC)cc1` (configuration not stated), the AC50 is 10 µM [rising, single point]. With `O=C1CSC(c2cn(-c3ccccc3)nc2-c2ccc3c(c2)OCCO3)N1CCN1CCOCC1` (configuration not stated), the AC50 was 7.94 µM [rising, partial curve]. Regarding `CC(=O)c1c(NCCc2ccccc2)cc(C)oc1=O`, the AC50 was 12.6 µM [rising, single point]. In the case of `N#Cc1cccc(-c2nc(NCc3ccccc3)c3ccccc3n2)c1` it was 5.01 µM [rising, single point]; in that of `Cc1noc(C)c1-c1cc(Nc2ccc(F)cc2)ncn1`, 5.01 µM [rising, partial curve]. With `COc1ccc(CNc2ncnc3ccc(-c4ccccc4OC)cc23)c(OC)c1`, the AC50 is 7.94 µM [rising, partial curve]. With `Cc1cc(NC(=O)C2CCN(S(=O)(=O)c3cnc[nH]3)CC2)ccc1Br`, the AC50 is 5.01 µM [rising, single point].

As to `Cc1ccc(S(=O)(=O)CCC(=O)OCC(=O)Nc2ncc(Cl)cc2Cl)cc1`, the AC50 was 0.00316 µM [falling, full curve, poor fit].

With `c1ccc(Cn2c(CSc3nnnn3-c3ccccc3)nc3ccccc32)cc1`, the AC50 was 3.98 µM [rising, partial curve]. In the case of `O=C(Nc1c(C(=O)Nc2cccc(F)c2)oc2ccccc12)c1ccc2c(c1)OCO2`, the half-maximal activity concentration (AC50) is 3.98 µM [rising, partial curve]. Take `C[C@@H](C(=O)NCc1ccccc1)[C@H]1C[C@]1(C)[C@H](NC(=O)OCc1ccccc1)c1ccccc1`: the AC50 is 3.98 µM [falling, partial curve]. For `CCOc1cc2c(cc1OCC)C(c1cc(OC)c(O)c(OC)c1)NCC2` (configuration not stated), the AC50 was 12.6 µM [rising, partial curve]. Turning to `Cc1cc2n(n1)C(c1ccc(N(C)C)cc1)Nc1ccccc1-2` (configuration not stated), the AC50 was 10 µM [rising, partial curve]. As to `CCc1nc2c(n1O)CCc1nonc1-2`, the AC50 was 1.26 µM [rising, partial curve, poor fit]. Take `COc1ncc2nc(-c3cccs3)c(=O)n(CCc3ccccc3)c2n1`: the AC50 is 3.16 µM [rising, partial curve]. In the case of `COC(=O)[C@@]1(Cc2ccc(OC)cc2)[C@H]2c3cc(C(=O)N4CCCC4)n(CCO)c3C[C@H]2CN1C(=O)c1ccccc1` it was 0.398 µM [rising, full curve, poor fit]; in that of `COCCNc1oc(COc2cccc(C)c2)nc1C#N`, 12.6 µM [falling, partial curve]; in that of `Cc1occc1C(=O)N1CCN(c2ccc(Cl)c(Cl)c2)CC1`, 10 µM [falling, single point]. Consider `COc1nc(/C(N)=N/O)nc(N2CCCCC2)n1`, for which the AC50 is 10 µM [rising, partial curve]. Turning to `COc1ccc(N2CCN(c3oc(-c4ccccc4OC)nc3C#N)CC2)cc1`, the AC50 is 10 µM [rising, partial curve]. As for `O=C(c1ccncc1)N(Cc1ccccc1)Cc1nc2ccccc2c(=O)[nH]1`, the AC50 was 12.6 µM [rising, single point]. As for `COc1cc2c(cc1OC)CN(C(=O)CCCN1C(=O)c3ccccc3C1=O)CC2`, the concentration at half-maximal activity (AC50) is 10 µM [falling, partial curve]. As for `O=C(c1ccccc1C(=O)N1CCN(c2ccc(F)cc2)CC1)N1CCN(c2ccc(F)cc2)CC1`, the AC50 was 15.8 µM [falling, single point]. As for `O=C(O)C1CC(c2ccccc2F)=NO1` (configuration not stated), the AC50 was 12.6 µM [falling, partial curve].

For the origin of these results see PubChem BioAssay AID662 (National Center for Advancing Translational Sciences (NCATS), 2007).
